# Results of single-concentration screens

The chains behind the UniProt entries cited, without tags or fusion partners. Residues count along the entry.
UniProt P9WNZ1, whole entry: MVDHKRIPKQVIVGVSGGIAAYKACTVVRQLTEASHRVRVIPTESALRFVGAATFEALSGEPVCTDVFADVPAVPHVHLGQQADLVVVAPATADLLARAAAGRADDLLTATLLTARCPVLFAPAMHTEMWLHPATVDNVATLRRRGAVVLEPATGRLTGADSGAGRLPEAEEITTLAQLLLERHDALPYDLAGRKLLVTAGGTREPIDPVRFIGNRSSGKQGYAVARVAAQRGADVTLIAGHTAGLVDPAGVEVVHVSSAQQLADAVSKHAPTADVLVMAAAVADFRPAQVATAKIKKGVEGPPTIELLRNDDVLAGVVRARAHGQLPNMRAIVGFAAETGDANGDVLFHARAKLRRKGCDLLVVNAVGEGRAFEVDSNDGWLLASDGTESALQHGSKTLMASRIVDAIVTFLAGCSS
UniProt Q4DA54, 1-478: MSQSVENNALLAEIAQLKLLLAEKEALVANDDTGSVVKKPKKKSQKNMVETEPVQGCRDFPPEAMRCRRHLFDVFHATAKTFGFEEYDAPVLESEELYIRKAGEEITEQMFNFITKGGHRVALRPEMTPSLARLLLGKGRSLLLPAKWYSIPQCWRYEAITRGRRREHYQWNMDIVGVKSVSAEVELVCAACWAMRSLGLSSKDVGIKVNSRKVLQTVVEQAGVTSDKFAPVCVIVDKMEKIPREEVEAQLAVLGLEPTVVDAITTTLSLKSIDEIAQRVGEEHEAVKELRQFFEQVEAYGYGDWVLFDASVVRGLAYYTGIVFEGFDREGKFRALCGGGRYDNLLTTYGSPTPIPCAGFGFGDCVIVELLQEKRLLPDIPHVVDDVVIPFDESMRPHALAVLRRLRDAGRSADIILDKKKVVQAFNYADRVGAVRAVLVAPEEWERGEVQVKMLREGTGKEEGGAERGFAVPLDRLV

Source: ChEMBL document CHEMBL3988442, “University of Dundee, Small-Polar-MMV Screening Library” (2021).

A: 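Coenzyme A biosynthesis protein CoaBC, Mycobacterium tuberculosis (UniProt P9WNZ1). Enzyme assay of CoaBC with a phosphate dye (Biomol Green) read at 650 nm. Compounds at 30 µM. Higher reads as stronger inhibition, judged from the few compounds that gave an IC50. Most strong results did not repeat in a second test. About 67,000 compounds were tested under these conditions; 0.06% (about 40) showed 50% or more at least once.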
B: 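Enzyme assay of histidyl-tRNA synthetase; the read-out is not stated. Target: Histidine-tRNA ligase, Trypanosoma cruzi CL Brener (UniProt Q4DA54). Concentration: 30 µM. The record gives no direction; compounds that gave an IC50 in retests scored well above the rest, so higher reads as stronger inhibition. Of about 69,000 compounds tested this way, about 31 (0.045%) reached 50% or more in at least one test.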

The filed quantity is “Percent Effect” (%).
The controls that fix the scale are not given in the record; negative values are as filed.
This is an unselected part of the compounds tested.

structure,A,B
CCN1CCN(c2ccc(CNC(=O)c3ccc(Cl)o3)cn2)CC1,6.649%,-3.396%
Cn1c(NCCC(=O)N2CCCC2)c(C#N)c(=O)n(C)c1=O,-12.75%,2.105%
CN(CCN1CCOCC1)C(=O)C1(c2ccc(F)cc2F)CCC1,7.09%,4.372%
CCOc1cc(C)nc(N2CCN(C(=O)C(C)NC(C)=O)CC2)n1 (configuration not stated),5.102%,8.772%
COc1cccc(C(c2c(C)n[nH]c2O)c2c(C)n[nH]c2O)c1OC,-5.896%,5.155%
CN(C)CCN1CC(C(=O)NCc2cccc(-n3cccn3)c2)CC1=O (configuration not stated),-2.828%,10.06%
COCCCN(Cc1cnc(N2CCCC2)nc1)C1CCN(C)CC1,4.938%,6.468%
Cc1cc(C)n(CC2CCCN2CC(=O)N(C)C)n1 (configuration not stated),6.05%,8.271%
O=C(O)[C@]12CCCN(Cc3ccsc3)C[C@H]1CN(c1ccccn1)C2,-0.2179%,8.743%
CS(=O)(=O)N1CCc2c(cccc2NC(=O)NC2CCCC2)C1,4.132%,11.67%
Cc1nc2n(n1)CC(NCc1ccccc1OCC(=O)N(C)C)CC2 (configuration not stated),-1.621%,3.03%
Cc1cc(C)cc(OCCNC(=O)C(C)Sc2nncn2C)c1 (configuration not stated),14.8%,-1.149%
O=C(C1CCCC1)N1CCC(Nc2ccncn2)CC1,3.2%,5.747%
CCn1c(C)cc(C(=O)N2CCCC(n3nc(C)nc3C)C2)c1C (configuration not stated),9.326%,-0.7634%
CC(C)c1noc(OCc2cccc(C#N)c2)n1,1.768%,2.924%
O=C(c1ccc[nH]1)N1CCCn2c(CN3CCCCC3)nnc2C1,1.728%,9.524%
CNC(=O)c1cccc(NC(=O)Cn2nc(-c3cccs3)oc2=O)c1,4.722%,-2.682%
O=C(NCC1CC2(CO1)CN(c1ncccn1)C2)C1CCC1 (configuration not stated),-0.2475%,3.315%
CCC(NC(=O)NC1CCN(S(C)(=O)=O)CC1)c1cccs1 (configuration not stated),-0.6143%,4.762%
O=C(NCC1CC1)C1CN(c2ncccn2)Cc2ccnn2C1 (configuration not stated),-10.23%,0.9524%
N#CCCN(CC1CCOC1)S(=O)(=O)c1c(F)cccc1Cl (configuration not stated),2.233%,1.961%
COCCC(=O)N1CCC(c2nc(O)cc(-c3ccncc3)n2)C1 (configuration not stated),1.225%,-3.191%
CN1Cc2ccccc2CC2(CCN(C(=O)[C@H]3CCCO3)CC2)C1=O,1.232%,-1.031%
CC1COCCN1Cc1nc(-c2ccc(F)cc2)no1 (configuration not stated),-4.386%,4.07%
Cc1nc2cc(F)cc(C(=O)N3CCN(CC(C)O)CC3)c2nc1C (configuration not stated),0%,3.448%
Cc1ccc(C(=O)N2CCC3(CCN(C(=O)c4cccnc4)C3)CC2)o1,2.314%,1.657%
N#Cc1cc(S(N)(=O)=O)ccc1NC1CCc2c(F)cccc21 (configuration not stated),-4.912%,15.52%
Cc1cccc(COC2COC3(CCN(Cc4ccoc4)CC3)C2)n1 (configuration not stated),6.266%,1.22%
CCn1cc2c(n1)CN(Cc1ccncc1)CC2COCC1CC1 (configuration not stated),-2.073%,3.825%
CC(C)N1CCCc2sc(C(=O)NC3CC3)nc21,0.2179%,6.557%
O=C([C@H]1CCCN1)N1CC2(CCNCC2)c2cc(Cl)ccc21,0.1212%,6.145%
CCc1ccc(CNC(=O)Nc2cc(C)on2)s1,3.481%,1.478%
CNC(=O)c1noc(CN2CC[C@](C)(O)[C@H](C)C2)n1,9.976%,10.3%
COc1cc2c(cc1CNCc1cccnc1-n1cccn1)OC(C)C2 (configuration not stated),1.46%,3.03%
COc1cccc(CN2CCC(Cc3cnc(CN(C)C)cn3)CC2)c1,7.524%,8.046%
CSc1nc(N)cc(N2C[C@@H]3CC[C@H](C2)N(Cc2cscn2)C3=O)n1,0.9091%,-9.189%
COc1ccc(C2CNCCN2C(=O)c2nccc3ccccc23)cc1 (configuration not stated),7.975%,3.101%
Cc1nnc([C@H]2C[C@@H]3CCN(Cc4ccc(C)o4)C[C@H]3O2)[nH]1,1.85%,3.509%
CNCc1cc(F)ccc1Oc1ccc(F)cc1,-3.558%,4.624%
CC(=O)N1CCCC2(CN(Cc3ccc(F)cc3)CCO2)C1 (configuration not stated),-0.3257%,10.78%
CN(C)Cc1cnn(-c2ccccc2C(=O)N(C)Cc2ccccc2)c1,3.893%,7.463%
CCN1CCN(C(=O)c2ccc(Cn3ccccc3=O)o2)CC1,0.3736%,7.872%
CCS(=O)(=O)N1CC(c2nc(-c3cccs3)no2)C1,-0.3764%,3.415%
CNC(=O)CS(=O)(=O)C1CCN(S(=O)(=O)c2ccccc2Cl)CC1,-1.623%,3.061%
c1cncc(COCC2CN(Cc3ccco3)Cc3nccn3C2)c1 (configuration not stated),7.009%,3.261%
O=c1n(Cc2ccc(F)cc2)nc2ncccn12,7.748%,11%
O=C(CNC(=O)c1ccc2c(c1)CCC2)NCCNc1ncccn1,-0.6519%,4.046%
O=C(c1ccc(Cl)cc1)N1CCC(N2CCOC2=O)CC1,-1.053%,-0.5917%
Cn1cccc1C(=O)N1CC[C@@]2(O)CCN(S(C)(=O)=O)C[C@H]2C1,-0.1167%,1.739%
Cc1ccc2oc([C@H]3CCN(Cc4ccccc4)C3)nc2c1,-13.56%,1.493%
O=C(CNc1cc(-n2cnnn2)ccc1F)Nc1ccccc1Cl,1.665%,-0.6135%
CN(C)S(=O)(=O)NCc1cccnc1Oc1ccccc1,11.73%,8.901%
COc1cc(C)nc(N2CCN(C(=O)CCc3ccco3)CC2)n1,3.912%,19.59%
Cc1ccc(CNC(=O)C2CCN(C(=O)C(C)C)CC2)n1C,7.662%,10.34%
Cc1cccc(OCCNC(=O)CN2CCc3cncnc3C2)c1,1.173%,8.092%
COc1ccc2nc(CNC(=O)C3CC4(CCNCC4)CN3C)[nH]c2c1 (configuration not stated),5.144%,8.458%
CCc1[nH]ncc1C(=O)N1CCCC(n2cncn2)C1 (configuration not stated),-2.5%,4.035%
Cc1ccccc1C(C)CC(=O)N1CC[C@H](O)C1 (some centres not stated),-4.8%,3.448%
Cc1cnn(CC2CCCN2Cc2cc(=O)n3cc(C)ccc3n2)c1 (configuration not stated),-6.438%,15.12%
Cc1cccc(CNc2ccc(C(=O)N3CCC(CO)CC3)cc2)c1,12.05%,6.077%
O=C(NCCCn1ccnc1)c1cccnc1OCC(F)(F)F,-0.2427%,7.955%
CCN(Cc1cccc2c1OCO2)C(=O)C(C)c1cccnc1 (configuration not stated),-1.581%,1.901%
Cc1noc(C)c1CN(C)C(=O)c1ccc(NC2CC2)nc1,5.843%,0.7576%
COCCN1CCC(CNc2nc3ccccc3o2)CC1,5.242%,2.793%
Cc1cccc(C2CCCN(C(=O)CN3CCCC3=O)C2)c1 (configuration not stated),1.707%,6.494%
COC(=O)NCCC(=O)NCC1(c2cccc(Cl)c2)CC1,0.4878%,3.896%
Cc1cc(C)cc(OCCN(C)C2CCOC2=O)c1 (configuration not stated),0.994%,1.587%
COc1ccc(C(=O)CCC(=O)NCc2c(C)noc2C)cc1F,1.816%,0%
CCc1sc(C(=O)Nc2cnn(CC(N)=O)c2)cc1C,1.297%,3.03%
Cc1nn(C)c(N(C)C)c1CNCc1ccc(N(C)C)nc1,3.004%,-2.326%
CN(C)Cc1nnc2n1CCN(c1cnccn1)CC2,-6.25%,5.882%
O=C(CC1CC1)N[C@@H]1CN(c2ncccn2)C[C@@H]2CCCO[C@@H]21,-3.583%,2.941%
c1cnc(N2CCO[C@H]3CN(Cc4ccsc4)C[C@H]32)nc1,3.553%,5.911%
Clc1cc(Cl)cc(CN2CCC(NCc3ncc[nH]3)CC2)c1,-39.46%,3.175%
CO[C@@H]1CCN(S(=O)(=O)N(C)C)[C@@H]2CN(Cc3cccnc3)C[C@@H]21,-12.92%,9.091%
c1c2c(nn1CC1CCOCC1)C(CNC1CCOCC1)OCC2 (configuration not stated),-0.6148%,0%
Cc1occc1C(=O)N1CCCN(Cc2cnn(C(C)C)c2)CC1,0.489%,10.31%
CCCOc1cc(CNC(=O)Nc2ccc(C)cc2)ccn1,1.911%,6.077%
N#Cc1c(SCCN2CCCCCC2)sc2c(O)cc(O)nc12,-1.104%,-2.312%
CCCS(=O)(=O)N1CCC2(CN(c3ccccc3)C(=O)CN2C)C1 (configuration not stated),0.8963%,1.84%

5 of the entries, repeated:

{"structure": "O=C(CNC(=O)c1ccc2c(c1)CCC2)NCCNc1ncccn1", "A": -0.6519, "B": 4.046}
{"structure": "Cc1ccccc1C(C)CC(=O)N1CC[C@H](O)C1", "stereo": "some centres not stated", "A": -4.8, "B": 3.448}
{"structure": "N#Cc1c(SCCN2CCCCCC2)sc2c(O)cc(O)nc12", "A": -1.104, "B": -2.312}
{"structure": "O=C(C1CCCC1)N1CCC(Nc2ccncn2)CC1", "A": 3.2, "B": 5.747}
{"structure": "Cc1nnc([C@H]2C[C@@H]3CCN(Cc4ccc(C)o4)C[C@H]3O2)[nH]1", "A": 1.85, "B": 3.509}